The nature of this test: qHTS Assay for Lipid Storage Modulators in Drosophila S3 Cells.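 For cell number change: cells counted by Cell Tracker Red CMTPX staining in the red channel.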 The note with it: BODIPY lipid droplet fluorescence, 18-24 h; for cell number change: measured here: cell count max response, cells fed with added oleic acid. In a few lines:
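Drosophila S3 cells got compounds at several concentrations plus oleic acid (400 uM solution). Laser-scanning cytometry with 488 nm excitation read lipid droplets at 500-530 nm and cells at 575-640 nm. Percent activity was relative to 20 uM Triacsin C.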
Background: In qHTS, concentration-response curves come from the screen itself.

Setting [1] is: measured here: lipid fluorescence (Fed channel) AC50, cells fed with added oleic acid.
[2] abbreviates: measured here: cell number channel AC50, cells fed with added oleic acid.

This is one part of the list. The main result of the screen is listed elsewhere. These columns were measured beside it and carry no call. The list favours compounds with an active or inconclusive main result. Words in brackets tell the shape of the fitted curve; partial curves, single points and poor fits give uncertain potencies.

Regarding `COc1cc(NC(=O)c2sc3ncn(CC(=O)N4CCCC(C)C4)c(=O)c3c2C)cc(OC)c1OC` (stereo not drawn), the cell number change was -16.2%. The AC50 under setting [1] was 6.51 µM [rising, single point].
For `COC(=O)c1sccc1N/N=C/c1ccc(OC)c(OC)c1OC`, the cell number change is 11.1%. Also, under setting [1], the AC50 is 0.461 µM [rising, partial curve].
With `O=C1c2ccccc2S(=O)(=O)N1CC(O)Cn1ccc2ccccc21` (stereo not drawn), the cell number change was -6.13%. For the same compound, the AC50 under setting [2] is 0.146 µM [falling, full curve, poor fit].
Regarding `O=C(NCc1ccc(OC(F)(F)F)cc1)C1CCC(=O)N(C2CC2)C1` (stereo not drawn), the cell number change is -11.6%. In addition, the concentration at half-maximal activity (AC50) under setting [1] is 29.1 µM [falling, single point].
As to `COC(=O)c1cccc(Cn2c(Cl)c(/C=N/Nc3ccccc3C)sc2=O)c1`, the cell number change stood at 8.93%. Besides, the AC50 under setting [1] was 6.51 µM [rising, single point].
For `Cc1cc(OCC(=O)O)c2cccc(C)c2n1`, the AC50 is 1.3 µM [falling, full curve, poor fit] under setting [2] and 0.82 µM [falling, full curve] under setting [1].
Regarding `COC(=O)C1CSc2[nH]c(=O)sc2C1c1ccccc1` (stereo not drawn), the cell number change was determined as 2.8%. Also, the AC50 under setting [1] is 0.103 µM [falling, full curve, poor fit].
`COc1ccccc1N1CCN(C(=O)c2cc(C(=O)N3CCN(c4ccccc4OC)CC3)cc([N+](=O)[O-])c2)CC1`: the cell number change was 0.324%.
Turning to `NC(=S)N1OC[C@@H]2COc3ccc4ccccc4c3[C@@H]21`, the cell number change was 28.3%. For the same compound, the AC50 under setting [1] is 23.1 µM [rising, single point].
As to `CCOC(=O)COc1coc(CN2CCN(c3cccc(Cl)c3)CC2)cc1=O`, the cell number change was 42.8%. Further, the AC50 under setting [2] is 32.6 µM [rising, single point]. Moreover, the AC50 under setting [1] was 29.1 µM [rising, single point].
Consider `CCOC(=O)Nc1ccc(OC)c([N+](=O)[O-])c1`, for which the cell number change came to 7.69%.
For the compound `C(=C1/CCCC2=C1Nc1ncnn1C2c1ccccc1)/c1ccccc1` (stereo not drawn), the cell number change was -49.4%. Further, under setting [2], the half-maximal activity concentration (AC50) was 29.1 µM [falling, single point]. Also, the AC50 under setting [1] is 23.1 µM [falling, single point].
With `COCCN(C(=O)Nc1ccc(F)cc1F)c1nc2ccccc2s1`, the cell number change is -1.66%.
As to `COC(=O)N1c2ccccc2CCc2ccccc21`, the cell number change is 64%. In addition, under setting [2], the AC50 is 29.1 µM [rising, partial curve, poor fit].
As to `C=CCOc1ccc(C2c3c(oc4ccccc4c3=O)C(=O)N2CCCN2CCOCC2)cc1` (stereo not drawn), the cell number change came out at 14.9%. The AC50 under setting [1] was 10.3 µM [rising, single point].
Turning to `COCC(=O)N(Cc1cc2cc(C)ccc2[nH]c1=O)c1ccc(C)c(C)c1`, the cell number change is -8.03%. Besides, under setting [1], the AC50 is 29.1 µM [falling, single point].
`O=C(CCCN1C(=O)S/C(=C\C=C\c2ccccc2)C1=O)Nc1ccc(O)cc1`: the cell number change is -6.57%. Also, under setting [1], the AC50 was 35.5 µM [rising, single point].

The AC50 is the midpoint of the concentration-response curve, whichever way the signal moves.

(Values after PubChem BioAssay AID2685 (National Center for Advancing Translational Sciences (NCATS), 2010).)
